Measurements: article doi:10.1101/2024.01.10.575035
No constants are given. Whether binding was seen depends on the method and setting. In cells and extracts the contact can be indirect. A yes stands for co-enrichment or nearness to the bait. Other partners may have been found.

By UniProt entry, the sequences of proteins in these tests, tags left out.
UniProt P42336: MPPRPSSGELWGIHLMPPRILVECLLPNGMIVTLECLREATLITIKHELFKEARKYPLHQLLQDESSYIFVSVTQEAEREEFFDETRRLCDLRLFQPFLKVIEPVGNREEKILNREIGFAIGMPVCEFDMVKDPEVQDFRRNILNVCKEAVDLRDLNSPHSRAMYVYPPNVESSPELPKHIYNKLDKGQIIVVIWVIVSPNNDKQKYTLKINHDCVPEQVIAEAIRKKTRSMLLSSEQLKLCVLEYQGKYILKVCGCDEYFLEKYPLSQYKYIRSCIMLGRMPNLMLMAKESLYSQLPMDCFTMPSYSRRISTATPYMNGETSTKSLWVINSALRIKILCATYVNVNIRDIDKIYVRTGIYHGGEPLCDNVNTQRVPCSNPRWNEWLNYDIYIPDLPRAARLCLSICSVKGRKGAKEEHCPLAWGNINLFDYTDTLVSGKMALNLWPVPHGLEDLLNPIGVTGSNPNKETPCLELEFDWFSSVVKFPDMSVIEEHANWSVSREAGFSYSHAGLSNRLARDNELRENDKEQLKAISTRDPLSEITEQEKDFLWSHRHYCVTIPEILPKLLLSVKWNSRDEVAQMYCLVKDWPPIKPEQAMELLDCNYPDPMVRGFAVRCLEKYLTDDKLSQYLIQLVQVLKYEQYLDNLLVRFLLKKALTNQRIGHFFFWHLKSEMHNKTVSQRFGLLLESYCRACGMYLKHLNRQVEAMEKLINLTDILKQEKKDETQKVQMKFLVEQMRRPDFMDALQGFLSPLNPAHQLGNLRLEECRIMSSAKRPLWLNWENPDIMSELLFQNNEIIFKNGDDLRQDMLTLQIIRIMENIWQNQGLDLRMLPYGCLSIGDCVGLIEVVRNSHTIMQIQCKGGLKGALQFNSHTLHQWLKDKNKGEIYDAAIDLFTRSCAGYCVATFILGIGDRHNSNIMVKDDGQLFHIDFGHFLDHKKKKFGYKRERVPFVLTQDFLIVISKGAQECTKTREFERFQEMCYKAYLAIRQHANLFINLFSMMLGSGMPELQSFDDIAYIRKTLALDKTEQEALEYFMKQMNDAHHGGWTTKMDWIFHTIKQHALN
UniProt O00459: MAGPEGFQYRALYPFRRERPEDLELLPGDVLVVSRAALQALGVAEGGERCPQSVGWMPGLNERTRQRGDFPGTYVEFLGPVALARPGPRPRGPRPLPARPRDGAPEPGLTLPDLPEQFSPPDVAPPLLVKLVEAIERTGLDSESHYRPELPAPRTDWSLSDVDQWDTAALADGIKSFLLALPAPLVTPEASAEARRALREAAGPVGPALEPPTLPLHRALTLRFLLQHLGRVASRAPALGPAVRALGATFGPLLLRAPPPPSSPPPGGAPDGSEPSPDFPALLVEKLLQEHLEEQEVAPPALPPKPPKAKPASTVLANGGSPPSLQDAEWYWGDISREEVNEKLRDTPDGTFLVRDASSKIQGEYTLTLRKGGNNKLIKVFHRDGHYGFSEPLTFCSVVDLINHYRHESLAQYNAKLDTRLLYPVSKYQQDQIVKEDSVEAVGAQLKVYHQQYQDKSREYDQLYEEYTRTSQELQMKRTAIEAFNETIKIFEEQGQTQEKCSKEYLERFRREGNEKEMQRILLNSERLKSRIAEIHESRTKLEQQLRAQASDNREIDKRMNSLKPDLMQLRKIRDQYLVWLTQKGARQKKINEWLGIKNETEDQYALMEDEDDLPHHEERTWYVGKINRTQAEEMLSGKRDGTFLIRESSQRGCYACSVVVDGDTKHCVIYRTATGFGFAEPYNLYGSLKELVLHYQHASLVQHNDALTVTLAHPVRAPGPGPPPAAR

Molecular target: HA-tagged wild-type p110α (stably expressed in MDA-MB-231) (human) (UniProt P42336)
Experiment: affinity purification with mass spectrometry

binding: binds
Substance: p85β adaptor subunit (endogenous, MDA-MB-231) (from UniProt O00459 1-728)
